# Experimental data published in the supplement of paper PMC12067093, “Discovery and optimisation of a covalent ligand for TRIM25 and its application to targeted protein ubiquitination” (Chemical Science, 2025).
# The chains behind the UniProt entries cited, without tags or fusion partners. Where a name states a change or a piece, a line headed by the entry shows the natural chain unless it says otherwise.
# UniProt Q9H8V3: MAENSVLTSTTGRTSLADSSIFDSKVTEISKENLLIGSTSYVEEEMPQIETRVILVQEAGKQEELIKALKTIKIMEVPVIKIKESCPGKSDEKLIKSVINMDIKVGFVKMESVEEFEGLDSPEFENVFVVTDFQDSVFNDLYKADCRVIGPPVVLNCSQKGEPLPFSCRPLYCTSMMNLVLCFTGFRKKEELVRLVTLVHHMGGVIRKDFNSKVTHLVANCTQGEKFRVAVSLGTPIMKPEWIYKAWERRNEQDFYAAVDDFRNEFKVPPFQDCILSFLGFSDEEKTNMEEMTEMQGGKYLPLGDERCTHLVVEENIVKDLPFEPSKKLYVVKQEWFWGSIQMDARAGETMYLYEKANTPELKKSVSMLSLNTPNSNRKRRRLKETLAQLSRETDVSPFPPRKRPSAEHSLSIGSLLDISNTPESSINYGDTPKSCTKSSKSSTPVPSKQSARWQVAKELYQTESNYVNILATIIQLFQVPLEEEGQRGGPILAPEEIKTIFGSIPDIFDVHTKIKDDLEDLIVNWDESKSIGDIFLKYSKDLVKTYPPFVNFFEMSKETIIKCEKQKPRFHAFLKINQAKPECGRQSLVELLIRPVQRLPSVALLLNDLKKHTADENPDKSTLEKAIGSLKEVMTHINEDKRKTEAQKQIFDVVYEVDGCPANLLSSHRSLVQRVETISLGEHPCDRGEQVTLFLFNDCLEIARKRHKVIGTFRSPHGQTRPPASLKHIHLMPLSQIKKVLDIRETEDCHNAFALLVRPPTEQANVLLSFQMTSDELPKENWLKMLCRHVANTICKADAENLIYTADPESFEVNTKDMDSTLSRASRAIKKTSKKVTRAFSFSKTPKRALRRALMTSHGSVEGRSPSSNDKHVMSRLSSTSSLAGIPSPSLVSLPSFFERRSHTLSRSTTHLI
# UniProt Q08426: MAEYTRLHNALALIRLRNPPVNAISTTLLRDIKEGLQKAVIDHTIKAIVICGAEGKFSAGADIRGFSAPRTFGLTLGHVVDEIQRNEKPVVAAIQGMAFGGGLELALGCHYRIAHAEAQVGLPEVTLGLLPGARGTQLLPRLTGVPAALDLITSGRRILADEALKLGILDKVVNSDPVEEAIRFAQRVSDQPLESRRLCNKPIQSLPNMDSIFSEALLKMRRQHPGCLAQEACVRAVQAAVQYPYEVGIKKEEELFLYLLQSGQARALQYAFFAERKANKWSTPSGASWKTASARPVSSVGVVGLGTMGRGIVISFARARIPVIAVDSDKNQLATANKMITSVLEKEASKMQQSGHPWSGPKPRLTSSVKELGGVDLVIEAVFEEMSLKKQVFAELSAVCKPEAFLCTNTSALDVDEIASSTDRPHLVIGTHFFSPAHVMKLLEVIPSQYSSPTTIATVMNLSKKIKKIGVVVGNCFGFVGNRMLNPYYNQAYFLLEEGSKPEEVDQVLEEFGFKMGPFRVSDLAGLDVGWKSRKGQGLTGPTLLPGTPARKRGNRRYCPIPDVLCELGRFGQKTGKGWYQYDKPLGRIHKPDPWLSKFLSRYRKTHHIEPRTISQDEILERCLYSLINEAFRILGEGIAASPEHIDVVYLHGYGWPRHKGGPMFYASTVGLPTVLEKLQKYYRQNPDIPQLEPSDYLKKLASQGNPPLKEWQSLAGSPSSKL
# UniProt P41214: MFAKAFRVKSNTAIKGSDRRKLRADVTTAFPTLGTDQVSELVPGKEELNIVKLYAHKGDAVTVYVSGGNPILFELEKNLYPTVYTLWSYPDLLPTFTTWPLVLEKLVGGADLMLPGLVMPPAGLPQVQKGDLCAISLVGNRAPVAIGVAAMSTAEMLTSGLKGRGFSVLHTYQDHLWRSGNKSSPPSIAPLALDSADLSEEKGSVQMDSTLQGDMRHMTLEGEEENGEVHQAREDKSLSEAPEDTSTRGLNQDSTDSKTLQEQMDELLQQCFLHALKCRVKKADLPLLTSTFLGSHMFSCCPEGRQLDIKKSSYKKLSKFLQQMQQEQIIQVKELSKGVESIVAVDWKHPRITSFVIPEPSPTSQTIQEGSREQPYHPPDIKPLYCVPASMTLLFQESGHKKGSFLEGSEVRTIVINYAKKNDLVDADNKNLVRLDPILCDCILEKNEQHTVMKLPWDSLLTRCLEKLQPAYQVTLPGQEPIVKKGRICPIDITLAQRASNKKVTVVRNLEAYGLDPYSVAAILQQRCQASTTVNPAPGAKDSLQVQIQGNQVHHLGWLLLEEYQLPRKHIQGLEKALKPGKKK
# UniProt Q96C19: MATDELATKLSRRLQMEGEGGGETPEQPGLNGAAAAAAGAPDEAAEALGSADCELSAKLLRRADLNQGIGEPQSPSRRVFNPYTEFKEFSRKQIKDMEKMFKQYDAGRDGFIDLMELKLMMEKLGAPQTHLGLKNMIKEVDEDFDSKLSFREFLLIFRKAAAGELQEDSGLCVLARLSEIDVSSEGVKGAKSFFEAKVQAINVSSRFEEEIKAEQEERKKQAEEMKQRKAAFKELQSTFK
# UniProt Q8N9N8: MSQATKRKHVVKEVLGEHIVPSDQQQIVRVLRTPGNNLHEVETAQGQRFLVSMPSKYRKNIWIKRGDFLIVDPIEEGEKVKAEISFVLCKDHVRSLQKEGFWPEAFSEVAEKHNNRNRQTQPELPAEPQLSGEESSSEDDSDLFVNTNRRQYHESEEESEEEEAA
# UniProt Q9GZT9: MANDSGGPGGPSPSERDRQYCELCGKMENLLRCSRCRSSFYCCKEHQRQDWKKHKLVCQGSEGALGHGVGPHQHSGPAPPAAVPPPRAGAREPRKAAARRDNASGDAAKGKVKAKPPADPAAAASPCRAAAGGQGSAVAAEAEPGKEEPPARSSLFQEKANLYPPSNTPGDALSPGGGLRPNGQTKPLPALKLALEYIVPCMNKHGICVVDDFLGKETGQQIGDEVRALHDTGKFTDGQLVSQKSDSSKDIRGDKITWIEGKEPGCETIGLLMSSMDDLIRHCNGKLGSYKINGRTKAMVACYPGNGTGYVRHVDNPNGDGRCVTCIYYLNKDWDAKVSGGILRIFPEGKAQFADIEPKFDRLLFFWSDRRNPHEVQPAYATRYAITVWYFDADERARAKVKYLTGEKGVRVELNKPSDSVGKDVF
# UniProt Q6P2E9: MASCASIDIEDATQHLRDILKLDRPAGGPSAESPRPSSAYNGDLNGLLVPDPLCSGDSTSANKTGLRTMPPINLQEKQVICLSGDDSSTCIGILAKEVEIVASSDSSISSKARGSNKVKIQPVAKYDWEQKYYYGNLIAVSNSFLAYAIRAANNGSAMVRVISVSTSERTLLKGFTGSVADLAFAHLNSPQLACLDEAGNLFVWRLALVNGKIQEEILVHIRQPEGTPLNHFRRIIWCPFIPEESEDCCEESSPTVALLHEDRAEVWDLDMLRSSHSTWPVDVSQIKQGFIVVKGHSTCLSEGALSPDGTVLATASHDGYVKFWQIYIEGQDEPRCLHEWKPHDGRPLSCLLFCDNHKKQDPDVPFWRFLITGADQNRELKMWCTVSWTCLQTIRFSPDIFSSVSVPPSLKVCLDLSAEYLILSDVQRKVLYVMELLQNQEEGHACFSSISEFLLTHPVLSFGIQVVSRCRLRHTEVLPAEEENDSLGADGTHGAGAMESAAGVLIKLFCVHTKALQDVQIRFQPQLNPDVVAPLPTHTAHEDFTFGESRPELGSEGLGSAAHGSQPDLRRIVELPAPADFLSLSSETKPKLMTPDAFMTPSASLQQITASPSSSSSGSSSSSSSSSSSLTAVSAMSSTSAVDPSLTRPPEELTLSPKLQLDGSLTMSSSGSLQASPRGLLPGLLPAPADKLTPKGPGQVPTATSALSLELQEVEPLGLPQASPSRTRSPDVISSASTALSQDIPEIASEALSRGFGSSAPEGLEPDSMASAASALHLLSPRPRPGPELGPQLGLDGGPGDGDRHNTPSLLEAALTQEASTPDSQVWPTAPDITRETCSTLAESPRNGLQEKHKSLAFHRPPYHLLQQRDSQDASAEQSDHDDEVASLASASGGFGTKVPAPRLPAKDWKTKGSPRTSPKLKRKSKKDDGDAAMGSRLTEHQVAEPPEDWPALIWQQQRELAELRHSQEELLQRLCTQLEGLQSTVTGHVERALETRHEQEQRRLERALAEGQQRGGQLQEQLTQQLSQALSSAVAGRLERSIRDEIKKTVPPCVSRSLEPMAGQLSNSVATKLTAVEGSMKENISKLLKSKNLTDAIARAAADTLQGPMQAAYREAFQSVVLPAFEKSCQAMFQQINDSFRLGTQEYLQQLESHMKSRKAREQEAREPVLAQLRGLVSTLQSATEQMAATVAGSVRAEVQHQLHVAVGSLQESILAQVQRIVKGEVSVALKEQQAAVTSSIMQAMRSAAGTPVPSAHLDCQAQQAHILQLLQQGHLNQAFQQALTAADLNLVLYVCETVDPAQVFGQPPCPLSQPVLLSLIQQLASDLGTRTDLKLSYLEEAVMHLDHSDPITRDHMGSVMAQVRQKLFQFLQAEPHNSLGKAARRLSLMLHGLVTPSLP
# UniProt O75521: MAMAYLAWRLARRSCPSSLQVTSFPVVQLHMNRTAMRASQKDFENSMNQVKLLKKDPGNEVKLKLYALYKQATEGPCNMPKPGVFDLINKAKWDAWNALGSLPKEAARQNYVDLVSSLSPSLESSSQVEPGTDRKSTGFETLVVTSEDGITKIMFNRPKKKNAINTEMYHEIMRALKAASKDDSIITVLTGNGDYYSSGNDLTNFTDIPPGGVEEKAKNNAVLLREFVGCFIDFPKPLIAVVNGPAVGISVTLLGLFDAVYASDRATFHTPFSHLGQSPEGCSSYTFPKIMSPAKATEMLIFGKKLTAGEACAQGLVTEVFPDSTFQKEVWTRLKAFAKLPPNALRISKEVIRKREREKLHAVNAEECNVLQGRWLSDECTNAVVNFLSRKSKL
# UniProt Q14156: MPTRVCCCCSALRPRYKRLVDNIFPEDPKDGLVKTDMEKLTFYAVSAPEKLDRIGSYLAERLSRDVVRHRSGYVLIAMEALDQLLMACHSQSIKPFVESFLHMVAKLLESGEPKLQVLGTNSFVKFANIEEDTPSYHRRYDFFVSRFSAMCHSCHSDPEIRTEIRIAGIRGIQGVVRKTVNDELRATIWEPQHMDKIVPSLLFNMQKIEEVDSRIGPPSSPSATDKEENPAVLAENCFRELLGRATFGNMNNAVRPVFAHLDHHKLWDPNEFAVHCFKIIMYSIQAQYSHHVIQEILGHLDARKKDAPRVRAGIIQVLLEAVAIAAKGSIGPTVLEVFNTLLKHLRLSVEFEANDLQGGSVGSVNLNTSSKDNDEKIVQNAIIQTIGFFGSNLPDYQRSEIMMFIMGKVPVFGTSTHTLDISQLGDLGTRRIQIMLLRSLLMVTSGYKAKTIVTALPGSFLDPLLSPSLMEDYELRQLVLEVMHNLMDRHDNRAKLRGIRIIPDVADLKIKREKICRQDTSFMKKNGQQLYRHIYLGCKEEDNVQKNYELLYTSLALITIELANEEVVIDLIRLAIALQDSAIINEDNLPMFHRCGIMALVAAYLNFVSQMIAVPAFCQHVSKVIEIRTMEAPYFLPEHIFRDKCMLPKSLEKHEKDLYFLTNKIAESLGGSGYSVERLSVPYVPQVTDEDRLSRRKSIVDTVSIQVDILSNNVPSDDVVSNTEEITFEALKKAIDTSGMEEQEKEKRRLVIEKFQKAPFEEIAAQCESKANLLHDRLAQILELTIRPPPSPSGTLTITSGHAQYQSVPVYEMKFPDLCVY
# UniProt Q9BQ95: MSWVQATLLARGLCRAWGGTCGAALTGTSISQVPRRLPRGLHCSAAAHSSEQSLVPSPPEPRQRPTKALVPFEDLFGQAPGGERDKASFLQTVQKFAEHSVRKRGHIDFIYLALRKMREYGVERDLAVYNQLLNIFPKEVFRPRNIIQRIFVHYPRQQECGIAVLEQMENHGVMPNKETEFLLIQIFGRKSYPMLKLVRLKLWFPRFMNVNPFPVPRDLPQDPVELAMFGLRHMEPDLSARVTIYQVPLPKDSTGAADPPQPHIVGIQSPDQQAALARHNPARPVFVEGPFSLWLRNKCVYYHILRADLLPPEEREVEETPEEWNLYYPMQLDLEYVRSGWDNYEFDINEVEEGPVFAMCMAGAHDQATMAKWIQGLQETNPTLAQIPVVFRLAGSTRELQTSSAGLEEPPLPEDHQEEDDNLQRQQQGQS
# UniProt P20042, whole entry, looked up: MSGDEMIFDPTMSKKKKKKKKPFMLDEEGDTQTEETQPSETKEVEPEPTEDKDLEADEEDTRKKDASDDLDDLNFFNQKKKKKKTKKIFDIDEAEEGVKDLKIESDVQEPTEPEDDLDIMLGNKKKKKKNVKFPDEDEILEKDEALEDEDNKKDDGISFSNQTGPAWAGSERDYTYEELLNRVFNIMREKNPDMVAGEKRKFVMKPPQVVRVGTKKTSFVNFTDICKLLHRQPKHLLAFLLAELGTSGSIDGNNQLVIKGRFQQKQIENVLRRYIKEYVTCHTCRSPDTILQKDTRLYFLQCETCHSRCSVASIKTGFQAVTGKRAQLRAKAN
# This is one part of the list.
# Compound: Cc1cc(ccc1-c1ccccc1)C(=O)N1CCCN(CC1)C(=O)CCl [compound 10]
# Assay: probe-labelled cysteine peptide fold change vs DMSO (competition) (log2 fold change); higher = less target engagement (more negative = stronger competition)
# Details: 10 µM; THP-1; incubation time: 4 h
# 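Also: competitive profiling in live THP-1 cells: cysteine peptides tagged with an iodoacetamide desthiobiotin (IA-DTB) probe, intensity after compound treatment relative to DMSO-treated cells.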
row,Target,probe-labelled cysteine peptide fold change
1,EFTUD2_Q15029_144_TCFVDCLIEQTHPEIRK (UniProt Q15029),-0.115
2,ECT2_Q9H8V3_221_VTHLVANCTQGEK (UniProt Q9H8V3),-0.00819
3,EFEMP1_Q12805_70_CVNHYGGYLCLPK (UniProt Q12805),-0.483
4,EEF1A1_P68104_370_NDPPMEAAGFTAQVIILNHPGQISAGYAPVLDCHTAHIACK (UniProt P68104),0.0417
5,EIF2S3_P41091_105_SCGSSTPDEFPTDIPGTK (UniProt P41091),-0.0873
6,EIF2B3_Q9NR50_379_SVIGSSCLIK (UniProt Q9NR50),-0.00222
7,EHHADH_Q08426_199_RLCNKPIQSLPNMDSIFSEALLK (UniProt Q08426),-0.0292
8,EDEM2_Q9BV94_408_VECGFATIK (UniProt Q9BV94),-0.169
9,EHMT1_Q9H9B1_1111_LLPEFNMAEPPLIFECNHACSCWR (UniProt Q9H9B1),0.0188
10,EIF2D_P41214_271_TLQEQMDELLQQCFLHALK (UniProt P41214),0.24
11,EIF3A_Q14152_198_KLCDNLR (UniProt Q14152),0.0465
12,EHMT2_Q96KQ7_426+428_GFEELPLCSCR (UniProt Q96KQ7),-0.147
13,EEA1_Q15075_346_DLDCQQLQSR (UniProt Q15075),-0.122
14,EEF1A2_Q05639_370_SDPPQEAAQFTSQVIILNHPGQISAGYSPVIDCHTAHIACK (UniProt Q05639),-0.0174
15,EIF2A_Q9BY44_366_LISKPVASDSTYFAWCPDGEHILTATCAPR (UniProt Q9BY44),0.0449
16,EHMT1_Q9H9B1_1203_FINHHCEPNLVPVR (UniProt Q9H9B1),0.0729
17,EFHD2_Q96C19_172_AAAGELQEDSGLCVLAR (UniProt Q96C19),-0.176
18,EGFL7_Q9UHF1_148_RGGCPQR (UniProt Q9UHF1),-0.109

row,Target,probe-labelled cysteine peptide fold change
1,EED_O75530_324_SCENAIVCWKPGK (UniProt O75530),0.0669
2,EIF1AD_Q8N9N8_89_AEISFVLCK (UniProt Q8N9N8),-0.0675
3,EGLN1_Q9GZT9_21_QYCELCGK (UniProt Q9GZT9),0.0202
4,EDC4_Q6P2E9_976_LCTQLEGLQSTVTGHVER (UniProt Q6P2E9),-0.0211
5,EHD4_Q9H223_495_LADCDCDGMLDEEEFALAK (UniProt Q9H223),0.00246
6,EEF2_P13639_651_KIWCFGPDGTGPNILTDITK (UniProt P13639),-0.124
7,EEF2_P13639_693_EGALCEENMR (UniProt P13639),-0.222
8,EEF2_P13639_567_DLEEDHACIPIK (UniProt P13639),-0.283
9,EGFL7_Q9UHF1_267+269_IDSLSEQISFLEEQLGSCSCKK (UniProt Q9UHF1),0.316
10,ECI2_O75521_282_ATFHTPFSHLGQSPEGCSSYTFPK (UniProt O75521),0.146
11,EEF1A1_P68104_234_KDGNASGTTLLEALDCILPPTRPTDKPLR (UniProt P68104),-0.0544
12,EEF1A1P5_Q5VTE0_363+370_GNVAGDSKNDPPMEAAGFTAQVIILNHPGQISAGYAPVLDCHMAHIACK (UniProt Q5VTE0),-0.198
13,EHHADH_Q08426_227+233_QHPGCLAQEACVR (UniProt Q08426),0.185
14,EGFL7_Q9UHF1_269_IDSLSEQISFLEEQLGSCSCK (UniProt Q9UHF1),-0.11
15,EFR3A_Q14156_538_HIYLGCK (UniProt Q14156),0.00379
16,ECSIT_Q9BQ95_299_CVYYHILR (UniProt Q9BQ95),-0.0107
17,EIF2S2_P20042_305_LYFLQCETCHSR (UniProt P20042),0.194
18,EEF2_P13639_369_YRCELLYEGPPDDEAAMGIK (UniProt P13639),-0.316

# Same assay, conditions: 50 µM; THP-1; incubation time: 4 h
row,Target,probe-labelled cysteine peptide fold change
1,EFTUD2_Q15029_144_TCFVDCLIEQTHPEIRK (UniProt Q15029),-0.232
2,ECT2_Q9H8V3_221_VTHLVANCTQGEK (UniProt Q9H8V3),-0.161
3,EFEMP1_Q12805_70_CVNHYGGYLCLPK (UniProt Q12805),-0.253
4,EEF1A1_P68104_370_NDPPMEAAGFTAQVIILNHPGQISAGYAPVLDCHTAHIACK (UniProt P68104),0.113
5,EIF2S3_P41091_105_SCGSSTPDEFPTDIPGTK (UniProt P41091),-0.0641
6,EIF2B3_Q9NR50_379_SVIGSSCLIK (UniProt Q9NR50),0.0328
7,EHHADH_Q08426_199_RLCNKPIQSLPNMDSIFSEALLK (UniProt Q08426),-0.205
8,EDEM2_Q9BV94_408_VECGFATIK (UniProt Q9BV94),-0.0204
9,EHMT1_Q9H9B1_1111_LLPEFNMAEPPLIFECNHACSCWR (UniProt Q9H9B1),-0.282
10,EIF2D_P41214_271_TLQEQMDELLQQCFLHALK (UniProt P41214),-0.407
11,EIF3A_Q14152_198_KLCDNLR (UniProt Q14152),-0.109
12,EHMT2_Q96KQ7_426+428_GFEELPLCSCR (UniProt Q96KQ7),-0.267
13,EEA1_Q15075_346_DLDCQQLQSR (UniProt Q15075),-0.0468
14,EEF1A2_Q05639_370_SDPPQEAAQFTSQVIILNHPGQISAGYSPVIDCHTAHIACK (UniProt Q05639),-0.107
15,EIF2A_Q9BY44_366_LISKPVASDSTYFAWCPDGEHILTATCAPR (UniProt Q9BY44),-0.205
16,EHMT1_Q9H9B1_1203_FINHHCEPNLVPVR (UniProt Q9H9B1),0.084
17,EFHD2_Q96C19_172_AAAGELQEDSGLCVLAR (UniProt Q96C19),-0.498
18,EGFL7_Q9UHF1_148_RGGCPQR (UniProt Q9UHF1),-0.151

row,Target,probe-labelled cysteine peptide fold change
1,EED_O75530_324_SCENAIVCWKPGK (UniProt O75530),-0.244
2,EIF1AD_Q8N9N8_89_AEISFVLCK (UniProt Q8N9N8),-0.261
3,EGLN1_Q9GZT9_21_QYCELCGK (UniProt Q9GZT9),-0.239
4,EDC4_Q6P2E9_976_LCTQLEGLQSTVTGHVER (UniProt Q6P2E9),0.299
5,EHD4_Q9H223_495_LADCDCDGMLDEEEFALAK (UniProt Q9H223),-0.276
6,EEF2_P13639_651_KIWCFGPDGTGPNILTDITK (UniProt P13639),-0.567
7,EEF2_P13639_693_EGALCEENMR (UniProt P13639),-0.128
8,EEF2_P13639_567_DLEEDHACIPIK (UniProt P13639),0.14
9,EGFL7_Q9UHF1_267+269_IDSLSEQISFLEEQLGSCSCKK (UniProt Q9UHF1),-0.483
10,ECI2_O75521_282_ATFHTPFSHLGQSPEGCSSYTFPK (UniProt O75521),0.311
11,EEF1A1_P68104_234_KDGNASGTTLLEALDCILPPTRPTDKPLR (UniProt P68104),-0.699
12,EEF1A1P5_Q5VTE0_363+370_GNVAGDSKNDPPMEAAGFTAQVIILNHPGQISAGYAPVLDCHMAHIACK (UniProt Q5VTE0),-1.24
13,EHHADH_Q08426_227+233_QHPGCLAQEACVR (UniProt Q08426),0.478
14,EGFL7_Q9UHF1_269_IDSLSEQISFLEEQLGSCSCK (UniProt Q9UHF1),0.0781
15,EFR3A_Q14156_538_HIYLGCK (UniProt Q14156),0.198
16,ECSIT_Q9BQ95_299_CVYYHILR (UniProt Q9BQ95),0.0148
17,EIF2S2_P20042_305_LYFLQCETCHSR (UniProt P20042),0.583
18,EEF2_P13639_369_YRCELLYEGPPDDEAAMGIK (UniProt P13639),-0.329
